According to the supplement of paper PMC12889115:
Some of the results follow. These are raw signals, not scaled to a control.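 First-pass screen: polymyxin B was added at a level that permeabilizes the Salmonella outer membrane while sparing the inner membrane. DMSO wells, with and without polymyxin B, defined maximum growth. Because plates differed from one another, each plate's data were ranked separately and the compounds with the lowest OD600 were carried forward as hits.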

Test system: Salmonella enterica serovar Typhimurium SL1344
Assay: bacterial growth OD600 after 18 h with compound and polymyxin B; higher = more bacterial growth (less inhibition)
Conditions: 50 µM, Mueller-Hinton broth

| SMILES | bacterial growth OD600 (polymyxin B 0.75 µg/mL) | bacterial growth OD600 (polymyxin B 1 µg/mL) |
| --- | --- | --- |
| COc1ccc(CN2CCC(c3nc(-c4ccncc4)ncc3-c3cccc(C)c3)CC2)cc1 | 0.689 |  |
| Cc1cnc(C)c(N2CCC(C3CCN(c4ncccn4)CC3)C2)n1 (stereo unspecified) | 0.479 |  |
| COc1ccccc1CNC(=O)c1c(OC)cc(=O)n2c1CCN(Cc1cccc(F)c1)CC2 | 0.822 |  |
| Cc1cccc(CNC(=O)C2CC23CCN(C(=O)CCC2CCCC2)CC3)n1 (stereo unspecified) | 0.951 |  |
| C=CCNC(=O)C1CCCN(C2CCN(c3nc4ccccc4o3)CC2)C1 (stereo unspecified) | 0.801 |  |
| COc1cccc(CCC2CCCN(C(=O)c3ocnc3C)C2)c1 (stereo unspecified) | 0.714 |  |
| Cc1ccc(Oc2ncccc2CNS(=O)(=O)c2ccc(C)s2)cn1 | 0.957 |  |
| COc1cccc(CC(C2CCN(C(=O)C3CCCCC3)CC2)N(C)C(=O)c2ccn(C)n2)c1 (stereo unspecified) | 1.02 |  |
| Cc1ccccc1N1CCN(c2ncccc2CNCc2nccn2C)CC1 | 0.705 |  |
| CC(C)CCCC1CN(C(=O)CCN2Cc3ccccc3C2=O)CCO1 (stereo unspecified) |  | 0.89 |
| CC(C)NC1CC(=O)N(Cc2ccccc2C(F)(F)F)C1 (stereo unspecified) |  | 0.958 |
| CCN1CC(CNC(=O)c2cc(NC(=O)COC)cc3ncn(CCc4ccccc4)c23)CC1=O (stereo unspecified) | 0.901 |  |
| O=C(c1cccc(F)c1)N1CCOc2ccc(CN3CCC(OCc4ccccc4)CC3)cc2C1 | 0.7 |  |
| COCCC(=O)Nc1cc(C(=O)N(C)CCc2cnn(C)c2)cc2nc(-c3ccccc3)n(C)c12 | 0.85 |  |
| Cc1cc(OCc2cc(C(=O)N3CCN(C)C(C)C3)no2)cc(C)c1Cl (stereo unspecified) | 0.183 |  |
| O=C(NCc1cccnc1N1CCOCC1)c1ccc2c(c1)OCO2 | 0.818 |  |

Ordered by formula weight (high to low): 3 of the compounds above

| SMILES | bacterial growth OD600 (polymyxin B 0.75 µg/mL) | bacterial growth OD600 (polymyxin B 1 µg/mL) |
| --- | --- | --- |
| CCN1CC(CNC(=O)c2cc(NC(=O)COC)cc3ncn(CCc4ccccc4)c23)CC1=O (stereo unspecified) | 0.901 |  |
| Cc1ccccc1N1CCN(c2ncccc2CNCc2nccn2C)CC1 | 0.705 |  |
| Cc1ccc(Oc2ncccc2CNS(=O)(=O)c2ccc(C)s2)cn1 | 0.957 |  |

The list continues.

| SMILES | bacterial growth OD600 (polymyxin B 0.75 µg/mL) | bacterial growth OD600 (polymyxin B 1 µg/mL) |
| --- | --- | --- |
| CN(Cc1cnn(C)c1)CC1(O)CCCN(Cc2ccc(F)c(F)c2)C1=O (stereo unspecified) |  | 0.973 |
| CC[C@H](C)[C@H](NC(=O)C1CCCN(c2nc(C)c3ccc(OC)cc3n2)C1)C(=O)OC (stereo partly specified) | 0.034 |  |
| O=C(CCC1CCCN(Cc2ccc(CO)o2)C1)Nc1ccc(C(F)(F)F)cc1 (stereo unspecified) |  | 1.07 |
| Cc1ccoc1C(=O)N1CCC2(CCCN(CCCc3ccccc3)C2)C1 (stereo unspecified) |  | 0.615 |
| Cc1cc(-c2cc(F)cc3c2OC(CNC(=O)C2CCC2)C3)ccc1F (stereo unspecified) | 0.031 |  |
| Cc1ccsc1C(=O)N1CCCC(C(=O)c2cccc(Cl)c2)C1 (stereo unspecified) |  | 0.698 |
| CCOC(=O)C1CCCN(C(=O)c2cc(NC(=O)COC)cc3ncn(Cc4ccc(F)cc4)c23)C1 (stereo unspecified) | 0.83 |  |
| COc1ccc(CN2CCCC(CO)(Cc3ccc(F)cc3F)C2)cc1O (stereo unspecified) | 0.665 |  |
| O=C(NCc1cc(F)ccc1F)c1coc(CN2CCN(c3ncccn3)CC2)n1 |  | 0.823 |
| CC(C)CCN(C)Cc1cnc(S(=O)(=O)CC(C)C)n1Cc1ccccc1 |  | 0.008 |
| c1ccc(CNc2nc3nonc3nc2N2CCCC2)cc1 | 0.881 |  |
| COc1cccc(CN2C[C@@H]3C[C@@H](c4cccc(Cl)c4)N4CCC[C@@]34C2=O)c1 | 0.715 |  |
| COc1ccc(CCN2CCCC(CN(C)Cc3ccc(NC(C)=O)cc3)C2)cc1 (stereo unspecified) |  | 0.826 |
| CC(Nc1ccc(C(=O)N2CCC(CN3CCCC3=O)CC2)cn1)C1CC1 (stereo unspecified) |  | 1.01 |
| CCO[C@H]1[C@H](NC(=O)c2cccnc2)c2ccccc2C12CCN(C(=O)c1ccc3[nH]ccc3c1)CC2 | 0.813 |  |
